# Screening data, single-dose tests

Sequences of proteins named here, by UniProt entry; tags and fusion partners are left off. Residues count along the entry.
UniProt Q4DA54, 1-478: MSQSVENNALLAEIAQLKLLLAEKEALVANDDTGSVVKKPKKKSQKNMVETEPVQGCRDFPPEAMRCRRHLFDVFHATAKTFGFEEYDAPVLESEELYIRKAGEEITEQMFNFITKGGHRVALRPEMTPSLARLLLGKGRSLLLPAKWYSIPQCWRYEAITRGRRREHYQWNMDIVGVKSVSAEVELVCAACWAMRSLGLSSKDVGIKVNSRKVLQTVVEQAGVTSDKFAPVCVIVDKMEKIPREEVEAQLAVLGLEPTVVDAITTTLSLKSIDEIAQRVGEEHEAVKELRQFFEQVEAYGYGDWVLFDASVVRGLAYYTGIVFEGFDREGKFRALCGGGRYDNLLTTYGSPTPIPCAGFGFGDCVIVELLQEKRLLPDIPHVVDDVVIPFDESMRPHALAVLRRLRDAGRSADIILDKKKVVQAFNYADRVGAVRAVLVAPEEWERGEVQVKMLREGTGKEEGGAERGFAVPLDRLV

Data taken from ChEMBL document CHEMBL3988442, “University of Dundee, Small-Polar-MMV Screening Library” (2021).

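Histidine-tRNA ligase, Trypanosoma cruzi CL Brener (UniProt Q4DA54). Enzyme assay of histidyl-tRNA synthetase; the read-out is not stated. Compounds at 30 µM. Higher reads as stronger inhibition (inferred: compounds with an IC50 in retests scored well above the rest). About 69,000 compounds were tested under these conditions; 0.045% (about 31) showed 50% or more at least once.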

The filed quantity is “Percent Effect” (%). How 0% and 100% were set is not recorded. Most values in the screen are low, and negative values occur. The compounds are a random part of those screened.

| compound | effect |
|---|---|
| `COC[C@@]12CCO[C@@H]1CCN(Cc1ccccc1OC)C2` | 5.155 |
| `CCOCCN(C)C(=O)Nc1cccc2c1CCN(CC)C2` | 6.433 |
| `COc1ccc(Cl)cc1NCc1cc(C)on1` | 2.053 |
| `O=C(O)c1cc(-c2ccn(CC3CC3)n2)n2ccccc12` | 3.448 |
| `O=C(CNC(=O)c1ccccc1Cl)Nc1nccs1` | 2.02 |
| `CC1(C)C[C@H](CCNC(=O)c2ccncc2)c2ccccc2O1` | 2.26 |
| `COc1cccc(CC(=O)N2CCc3ncnc(NC(C)C)c3CC2)c1` | 6.077 |
| `O=C1N(c2ccsc2)CCC12CCCN(c1ncc(F)cn1)C2` (centres unmarked) | 11.56 |
| `O=S(=O)(NC[C@]12COC[C@H]1CN(c1ncc(F)cn1)C2)C1CC1` | -1.935 |
| `Cc1ccc(CNC(=O)N2CCOCC2C2CC2)cc1F` (centres unmarked) | 4.255 |
| `Cc1ccsc1-c1cccc(-c2ccn(CC3CCNC3)n2)c1` (centres unmarked) | 4 |
| `NC(=O)CCCNC(=O)CCc1cc(Br)cs1` | 1.053 |
| `COCC(=O)N1CCC2(CC1)C(=O)N(Cc1cccnc1)CCN2C` | 1.942 |
| `O=S(=O)(C1CC1)N1CCO[C@@H]2CN(Cc3ccco3)C[C@@H]2C1` | 1.093 |
| `CCCc1cc(N2CCC(Cc3cccc(C(N)=O)c3)C2)nc(C)n1` (centres unmarked) | 6.438 |
| `Cc1cnn(-c2cncc(C(N)=O)c2)c1` | 1.961 |
| `O=C(CC1CCC2(CC1)CCN(Cc1cccnc1)CC2)N1CC=CC1` | 2.804 |
| `Cc1ccc(NC2CCN(C(=O)Cc3cccs3)CC2)nn1` | 1.734 |
| `Cc1cnc(N2CCCOC(CN3CCCCC3)C2)nc1` (centres unmarked) | 3.947 |
| `CSCC(C)C(=O)NCc1c(C)nc2cc(=O)[nH]n2c1C` (centres unmarked) | 10.83 |
| `CC(C)[C@H]1CN(Cc2nccn2C)C[C@@H]1NC(=O)COCC(N)=O` | -0.8696 |
| `CCC1CN(C(=O)c2ccccc2C(C)=O)CCN1C(C)C` (centres unmarked) | 2.97 |
| `COc1ccc(CN2CCN(C(=O)N(C)C)[C@@H]3CS(=O)(=O)C[C@@H]32)cc1F` | 3.061 |
| `Cc1cnn(CC2CN(c3ncnc4ccccc34)CCO2)c1` (centres unmarked) | 3.008 |
| `CCNC(=O)NCc1ccc(CN2CCCC(C)C2)cc1` (centres unmarked) | 10.12 |
| `N#Cc1ccnc(N2CCN(CC(O)c3ccccc3Cl)CC2)c1` (centres unmarked) | 4.233 |
| `CCn1c(CN2CCCC2)nnc1C1CCN(S(=O)(=O)CC)CC1` | 2.174 |
| `O=C(O)c1ccnc(-c2ccnc(NCCc3ccc(F)cc3)n2)c1` | 4.712 |
| `COC1(CNC(=O)c2ccc(Cl)c(Cl)c2)CCSC1` (centres unmarked) | 6.25 |
| `CC(C)c1noc(CN(C)C(=O)c2ccccc2-c2nc[nH]n2)n1` | -8.163 |
| `FC(F)(F)CCc1ccnc(N2CCN(Cc3ccncc3)CC2)n1` | 5.028 |
| `Cc1nc2ccc(C(=O)N3C[C@@H](O)[C@H](N4CCCC4)C3)cc2[nH]1` | 6.716 |
| `COc1c(C2CCCN2C(=O)c2cnn(C)c2C2CC2)c(C)nn1C` (centres unmarked) | 6.186 |
| `COc1cccc(CNCc2cccc(Cl)c2)c1O` | 5.699 |
| `Cn1cc(C(=O)N2CCCC(Cc3cnccn3)C2)cn1` (centres unmarked) | 2.26 |
| `CC1CN(C)CCN1C(=O)c1cnn(-c2cccc(Cl)c2)c1` (centres unmarked) | 2.874 |
| `O=C(C1CCSCC1)N1CC[C@H]2OCC[C@@]2(COCC2CC2)C1` | 7.362 |
| `OC1CCN(Cc2ccc(CNc3ccc(Cl)cn3)cc2)CC1` | -10.34 |
| `Cc1ncsc1-c1nnc(C2CCN(Cc3ccc(F)cc3)CC2)o1` | 5.946 |
| `FC(F)(F)Sc1ccc(NCc2nnc(C3CC3)o2)cc1` | 7.097 |
| `NCc1cnn(-c2ccccc2C(=O)NCCCn2ccnc2)c1` | 5.946 |
| `Cc1cccn2cc(CNS(=O)(=O)N3CCOCC3)nc12` | 0 |
| `COCC(=O)N1CCN(Cc2coc(-c3cccc(F)c3)n2)CC1` | 1.527 |
| `Cc1csc2ncc(-c3ccnc(N4CCCN(C)CC4)n3)c(=O)n12` | 6.78 |
| `CN1CCc2c(CNC(=O)c3nccn3C)cncc2C1` | -4.124 |
| `CCNC(=O)N1CCN(c2nc3ccccc3n2C)CC1` | 7.538 |
| `CN(C(=O)NCc1ccsc1)C1CCN(c2ccccc2)C1=O` (centres unmarked) | 5.882 |
| `CC(C)c1cc(C(=O)N2CCCN(CCCc3ccccc3)CC2)[nH]n1` | 7.407 |
| `O=C(CNC(=O)C1(c2ccc(F)cc2F)CCC1)Nc1cccnc1` | 5.699 |
| `Cc1cc(C)n(CC2CN(Cc3noc(C)n3)CCO2)n1` (centres unmarked) | 1.425 |
| `CCc1nn(C)c(Cl)c1CN1CCN(c2ccc(C(N)=O)cn2)CC1` | 2.463 |
| `Cc1ccnn1CC(=O)N(C)Cc1cnn(-c2ccccc2)c1` | 0 |
| `O=C(c1cccc(CNCC2CNc3ccnn3C2)c1)N1CCCC1` (centres unmarked) | 7.895 |
| `O=C(CSCCN1CCOCC1)N1CCCCCC1` | 4 |
| `COCC1COCCC12CCN(S(=O)(=O)c1cccnc1)CC2` (centres unmarked) | 11.73 |
| `O=C(CCC1CCN(C(=O)c2cnco2)CC1)NCc1cccc(Cl)c1` | 2.703 |
| `CN1CCCN(c2nccc(-c3c[nH]nc3-c3ccncc3)n2)CC1` | 7.91 |
| `Cc1nc(Nc2ccccn2)cc(C2CCCN2Cc2ncc[nH]2)n1` (centres unmarked) | 3.333 |
| `CCn1c(C)nnc1CN(C)C1CCN(CCS(=O)(=O)CC)C1` (centres unmarked) | 4.956 |
| `CCc1nncn1CCNC(=O)N1CCN(Cc2ccccc2)CC1` | 3.79 |
| `Cc1ccc(C(=O)N2CCOC(c3ncc(CN(C)C)[nH]3)C2)cc1F` (centres unmarked) | 9.579 |
| `CCN1CC2(CC1=O)CN(C(=O)c1ccoc1)CCN(C(=O)N(C)C)C2` (centres unmarked) | -2.632 |
| `CN(C)S(=O)(=O)c1ccc(CN2CCCC2c2ccsc2)o1` (centres unmarked) | 8.092 |
| `CN(C)S(=O)(=O)NC(=O)CC(c1ccccc1)C(F)(F)F` (centres unmarked) | 6.897 |
| `CCn1ncc(-c2nc3c[nH]n(CC)c-3n2)c1C` | 4.04 |
| `CN(C)C(=O)[C@H]1C[C@H]2OCC[C@H]2N(CCOc2ccc(Cl)cc2)C1` | 2.174 |
| `COc1cc(C(=O)NCCc2ccc(OC)c(OC)c2)on1` | 4.124 |
| `CC(C)(C)CNC(=O)CNC(=O)C1CC1` | 5.759 |
| `Cc1nocc1C(=O)N1CCCC2(CCN(c3ccsc3)C2=O)C1` (centres unmarked) | 6.557 |